According to US8455507B2, “Aminopyrimidines useful as kinase inhibitors” (Vertex Pharmaceuticals Incorporated, priority 2007, dated 2013):
Some entries share one result that the patent states for a list of compounds. For at least one compound, name, drawing or mass did not settle the structure.

assay: Microsomal Stability Assay; format: in vitro ADME; settings: 30 minutes, 5 μM compound, 1 mg/mL protein

% parent remaining after 30 minutes incubation with human liver microsomes, > 50%:
Cc1cc(Nc2cc(N3CCN(C4CCN(C)CC4)CC3)nc(Sc3ccc4nc(C(F)(F)F)n(C)c4c3)n2)[nH]n1 [Compound I-12]
Cc1cc(Nc2cc(N3CCN(C4CCCCC4)CC3)nc(Sc3cc(F)c4nc(C)ccc4c3)n2)[nH]n1 [Compound I-1]
Cc1cc(Nc2cc(N3CCN(C4CCCCC4)CC3)nc(Sc3ccc4nc(C(F)(F)F)[nH]c4c3)n2)[nH]n1 [Compound I-8]
Cc1cc(Nc2cc(N3CCN(C4CC4)CC3)nc(Sc3ccc4nc(C(F)(F)F)[nH]c4c3)n2)[nH]n1 [Compound I-4]
Cc1cc(Nc2cc(N3CCN(C4CC4)CC3)nc(Sc3ccc4nc(C(F)(F)F)n(C)c4c3)n2)[nH]n1 [Compound I-10]
Cc1cc(Nc2cc(N3CCN(C(C)(C)CF)CC3)nc(Sc3ccc4nc(C(F)(F)F)cn4c3)n2)[nH]n1 [Compound I-11]
Cc1cc(Nc2cc(N3CCN(C(C)(C)CF)CC3)nc(Sc3ccc4nc(C(F)(F)F)n(C)c4c3)n2)[nH]n1 [Compound I-21]
Cc1cc(Nc2cc(N3CCN(C4CC4)CC3)nc(Sc3ccc4nc(C(F)(F)F)cn4c3)n2)[nH]n1 [Compound I-14]
Cc1cc(Nc2cc(N3CCN(C4CCCCC4)CC3)nc(Sc3ccc4nc(C(F)(F)F)n(C)c4c3)n2)[nH]n1 [Compound I-3]
Cc1cc(Nc2cc(N3CCN(CC(F)(F)F)CC3)nc(Sc3ccc4nc(C(F)(F)F)cn4c3)n2)[nH]n1 [Compound I-22]
Cc1cc(Nc2cc(N3CCN(CC(F)(F)F)CC3)nc(Sc3cc(F)c4nc(C)ccc4c3)n2)[nH]n1 [Compound I-23]
Cc1cc(Nc2cc(N3CCN(C4CCN(C)CC4)CC3)nc(Sc3ccc4nc(C(F)(F)F)ccc4c3)n2)[nH]n1 [Compound I-17]
Cc1cc(Nc2cc(N3CCN(CC(F)(F)F)CC3)nc(Sc3ccc4nc(C(F)(F)F)[nH]c4c3)n2)[nH]n1 [Compound I-9]

same assay, conditions: 60 minutes, 5 μM compound, 1 mg/mL protein

% parent remaining after 60 minutes incubation with human liver microsomes, > 50%:
Cc1cc(Nc2cc(N3CCN(C4CCN(C)CC4)CC3)nc(Sc3cc(F)c4nc(C)ccc4c3)n2)[nH]n1 [Compound I-13, 2-(8-fluoro-2-methylquinolin-6-ylthio)-N-(3-methyl-1H-pyrazol-5-yl)-6-(4-(1-methylpiperidin-4-yl)piperazin-1-yl)pyrimidin-4-amine]
Cc1cc(Nc2cc(N3CCN(C4CCN(C)CC4)CC3)nc(Sc3ccc4nc(C(F)(F)F)ccc4c3)n2)[nH]n1 [Compound I-17]
